For at least one entry, the source does not settle the construct or the ends of the probe. At least one verdict rests on a figure or table, not on a statement of the authors.
Target: Interleukin-6 (rhIL-6) (human) (UniProt P05231)
Experiment: electrochemical aptasensor (SWV)
Conditions: 500 and 1000 pg/mL rhIL-6, 30 Hz, reversible; 3' thiol (immobilised on gold); 1x DPBS with 0.1 M NaCl, pH 7.4, room temperature; aptamer on gold electrode with MCH backfill, SWV 30-500 Hz; recombinant protein; label: 5' methylene blue; single-stranded DNA

Chains of the proteins cited; added tags and fusions are not shown. Residues count along the entry.
UniProt P05231, 30-212: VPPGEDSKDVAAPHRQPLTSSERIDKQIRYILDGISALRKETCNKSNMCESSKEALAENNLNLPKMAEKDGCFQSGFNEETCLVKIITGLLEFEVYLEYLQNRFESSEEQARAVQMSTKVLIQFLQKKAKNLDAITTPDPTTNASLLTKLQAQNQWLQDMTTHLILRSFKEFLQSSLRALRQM

GGTGGCAGGAGGACTATTTATTTGCTTTTCT [IL-6 aptamer]
binding result: binds
